## Results from one PubChem assay

The results are deposited in PubChem (AID1159506; NCATS, 2015).

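Genome-wide siRNA knockdown in TC32 Ewing sarcoma cells, comparing luciferase light from an NR0B1-promoter reporter with a CMV-promoter reporter 48 hours after transfection.
Each siRNA was applied at 20 nM.
A z-score of the log NR0B1-over-CMV signal, less the median of siRNAs with the same seed; more negative means a stronger specific loss of the NR0B1 reporter.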

The strongest results of the screen are mostly left out here.
Sequences are the guide (antisense) strand, without overhang.

AAGCCGUUGAUAAAUCUGC against XIAP gave seed-corrected z-score -0.3291.
UUUCAUAGAAUUCCUGCAG against COPS2 gave seed-corrected z-score -0.7217.
UUUGUCUAUAAUAUGCUGC against ZBTB37 gave seed-corrected z-score 0.05127.
UACUAUACUGGUCCAUUGC against ANAPC7 gave seed-corrected z-score 1.25.
UAUAGUGUUGGUCCAAUGG against PARP2 gave seed-corrected z-score 0.1962.
UACGUUUUGCAACUCAACC against TBX5-AS1 gave seed-corrected z-score 1.019.
AAAGAGUCCAGAUUAAGUA against ACER2 gave seed-corrected z-score 0.7839.
UUAGCUUCAUCCAACUUUG against TNFAIP3 gave seed-corrected z-score -1.104.
UAAUAGAUAGUCACCACUG against OR1J1 gave seed-corrected z-score 0.4618.
UAGUCAACCACAGACUCCC against SEC62 gave seed-corrected z-score 0.8315.
UUAUUGAAAAGUUUUAAGC against CXCR3 gave seed-corrected z-score 0.4944.
AGUAGUAGCACUUCCGUUG against FCER2 gave seed-corrected z-score -1.172.
UCAGGGUCUAGGAUUUUGA against MORN3 gave seed-corrected z-score 0.9845.
UGUGCGUCACUGUACACCU against FGFR3 gave seed-corrected z-score 0.1234.
AAUUCUCUCAGUCUGAAGG against CCDC192 gave seed-corrected z-score 0.2146.
UAUGUCAGCAUAAUGAACC against GPM6A gave seed-corrected z-score 0.3051.
AAAAUAGGGAGCAACAUGG against TSHB gave seed-corrected z-score -1.001.
UCGGAUAUUGAUAAUCUUC against ZNF804B gave seed-corrected z-score -0.09009.
UGACUGAUUUGAUUGGAGG against KCNK2 gave seed-corrected z-score -0.6916.
UAUCUACUUUUGUCGGUUC against RARB gave seed-corrected z-score 0.3883.
AAAAAGCGAAGUAACAUGC against EIF4G2 gave seed-corrected z-score 1.122.
UUCGAAUUCGGCUAGCUCC against SAT2 gave seed-corrected z-score -0.2533.
UUAGAUACAACAUCCUGAG against CEBPZ gave seed-corrected z-score 0.1436.
UGGUUUCCUAUGACAACUG against NSL1 gave seed-corrected z-score -0.3361.
UAUUGAUCCGGUCUCGUCG against HEY1 gave seed-corrected z-score -0.6478.
UACUUUCGAGGGUUCCUCC against INTS10 gave seed-corrected z-score 0.1477.
UCUGUUACGCACAUCAUCC against HAO1 gave seed-corrected z-score 0.3457.
AAUAUGUCCAACAAGAUGC against MTA1 gave seed-corrected z-score -0.411.
UACAUAUGAACAAUCUAUC against YAE1D1 gave seed-corrected z-score 1.384.
UGACGGAUUCGGGUAAUCG against RYR3 gave seed-corrected z-score -0.3194.
AUAGAUACGACCUCCAUGC against TINAGL1 gave seed-corrected z-score 1.63.
UAGAUAUUGAGGUAAGGUG against PTPDC1 gave seed-corrected z-score 0.1599.
CAACGCGUAGUCGAACUGC against CTXN1 gave seed-corrected z-score -0.405.
UUUCUAUGUUGUCUGCUGC against OCIAD1 gave seed-corrected z-score 0.3974.
UCGGCUACUAAGGACAUGG against FANCD2 gave seed-corrected z-score 1.123.
UCCACGACCAGUAAUAUCG against ADH7 gave seed-corrected z-score -0.8657.
UUUGUGAUCUGCUGUAGUC against HAUS2 gave seed-corrected z-score 1.009.
UAUCCUGCAUUUGUCAACC against RIOK2 gave seed-corrected z-score -0.1528.
UGGAUGUUAAAGAAUGAGG against KIAA1671 gave seed-corrected z-score 1.143.
AUAAGUUUUUGAGUUGUUG against CH17-351M24.1 gave seed-corrected z-score 0.05411.
UUCGCUGUGCUUUCCUUCC against TUSC5 gave seed-corrected z-score -0.6727.
UAUCUUAAAGCUGACAACC against SOWAHA gave seed-corrected z-score 0.1727.
UCAGUAAGCAGCAAGUUGA against PHF24 gave seed-corrected z-score -0.02837.
UACCUUUUCGCGUUCCUCC against SEPHS2 gave seed-corrected z-score -0.009865.
UUCCAAUCCUUGACGAUGC against ACTR1A gave seed-corrected z-score -1.24.
UUCUUAGGAACAGUCUUUC against NXPE1 gave seed-corrected z-score -0.003401.
UGCUCUACUACGUUCAACU against FAM96B gave seed-corrected z-score 0.008813.
UAUUCUAUCACUGUGGUCA against CABLES2 gave seed-corrected z-score -0.9121.
UUUCUUCCAAGGUACAAUG against LOC644285 gave seed-corrected z-score -0.7557.